# The list shows a part of the results.
# Target: T1, OsSMF1 (Oryza sativa, UniProt Q6ZLB0 1-436)
# T1 sequence: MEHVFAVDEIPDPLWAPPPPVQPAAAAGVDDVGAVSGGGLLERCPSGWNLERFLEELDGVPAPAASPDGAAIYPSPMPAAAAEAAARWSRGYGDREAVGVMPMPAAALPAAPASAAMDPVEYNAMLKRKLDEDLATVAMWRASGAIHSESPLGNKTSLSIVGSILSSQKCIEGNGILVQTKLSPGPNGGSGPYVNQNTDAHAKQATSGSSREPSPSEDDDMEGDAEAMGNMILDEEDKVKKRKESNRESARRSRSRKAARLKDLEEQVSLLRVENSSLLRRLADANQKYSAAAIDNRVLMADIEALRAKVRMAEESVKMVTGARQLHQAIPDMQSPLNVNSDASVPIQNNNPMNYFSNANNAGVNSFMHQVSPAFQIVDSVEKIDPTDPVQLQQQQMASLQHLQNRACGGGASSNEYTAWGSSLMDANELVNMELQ
# Assay: protein-binding microarray (RPBM); PBS, 2% BSA, 51.3 ng/ul salmon testes DNA, 50 uM zinc acetate, 200 nM TF, 25 C, 1 h; high values mean tight binding
# Conditions: protein: recombinant; tags: N-terminal polyhistidine and DsRed monomer fusion (pET32a); chain copies: 2; label: CyDye5-dUTP incorporated in the synthesized complementary strand; 3' TTTTT single-stranded linker to array surface; dsDNA, one strand shown
# Outline: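 The binding signal for each feature is its fluorescence intensity in arbitrary units. An Axon 4000B scanner was used to read a custom Agilent array that had been made double-stranded with Cy5-dUTP primer extension, blocked with 2% BSA, incubated at 25 °C for 1 h with 200 nM protein in PBS, 2% BSA, salmon testes DNA and 50 µM zinc acetate, and washed. The protein was an N-terminal polyhistidine–DsRed transcription factor fusion from E. coli BL21-CodonPlus, purified on Ni–NTA.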
row,Sequence,binding signal
1,GTAGCTTGGTTAATAATAATTGTACACAACTTGGTCGTAACGGAGTCACCTAGTGCAG,3320 fluorescence intensity (a.u.)
2,TTAATGTCCTAAGTTTAGTGGTGGAGTCATACATCTATCTCGGAGTCACCTAGTGCAG,4540 fluorescence intensity (a.u.)
3,CATCATCATCTCTTCTCCTCTCTCTCTCTCTTTCCTTTTCCGGAGTCACCTAGTGCAG,8580 fluorescence intensity (a.u.)
4,GTGCCAGCTGGATATCCTCCATCCGCCGCCCCACGTCCCCCGGAGTCACCTAGTGCAG,4580 fluorescence intensity (a.u.)
5,GAATCCTTTTGGTGGTTTAAGAACGGTCAGCAAGTAGGTTCGGAGTCACCTAGTGCAG,4060 fluorescence intensity (a.u.)
6,AAAACGACTATCGTTGACGAGACATCCACGTGGTAGTCCACGGAGTCACCTAGTGCAG,4520 fluorescence intensity (a.u.)
7,ATATCATGCCCAGATATTAAACTAAAATTATATTAGATACCGGAGTCACCTAGTGCAG,4080 fluorescence intensity (a.u.)
8,GAAGCAACCGCATGTATCCCTTCCCACCACATCCTTGATCCGGAGTCACCTAGTGCAG,3170 fluorescence intensity (a.u.)
9,CCCTCTATTCAGACATATCTCACCCAACTTACTGAACGCCCGGAGTCACCTAGTGCAG,7260 fluorescence intensity (a.u.)
10,TGTGATACCCTATATAATAACCGATGTGACACGATAAAATCGGAGTCACCTAGTGCAG,3590 fluorescence intensity (a.u.)
11,CCTGTTGATTGGATATCTGGAACCTGAAATCCTGAATACGCGGAGTCACCTAGTGCAG,21300 fluorescence intensity (a.u.)
12,GGTGATCACTAGGCTGTCAATGGGGTGGTAGGGTGGCATGCGGAGTCACCTAGTGCAG,3250 fluorescence intensity (a.u.)
13,CACTACTTGCTGTCTTGCTGCCGCCACGCTGCTCCTCCCCCGGAGTCACCTAGTGCAG,22900 fluorescence intensity (a.u.)
14,GATATGTGGGCCCACGTGGAATAAAATAAATGTGTGATGCCGGAGTCACCTAGTGCAG,4700 fluorescence intensity (a.u.)
15,ATAACAGAATGGATGACGTAAGCTGCACACGCGGCACTAGCGGAGTCACCTAGTGCAG,8280 fluorescence intensity (a.u.)
16,ACGCGCGTCGCACGCCACGCGGCACCATTTCGCTTCGCCTCGGAGTCACCTAGTGCAG,9140 fluorescence intensity (a.u.)
17,CTGGGGAGCGGGTGGGCTGTCTGCATTGTTTAGCCCATGACGGAGTCACCTAGTGCAG,3510 fluorescence intensity (a.u.)
18,TCTCACGTACACCTCCGGTTTCTGATTCTTGCTTCGTGTGCGGAGTCACCTAGTGCAG,3280 fluorescence intensity (a.u.)
19,TCGATCGTTGGTTAGCGCGTACGTACGTCTTGGTCATTTGCGGAGTCACCTAGTGCAG,3670 fluorescence intensity (a.u.)
20,GCCACGTAGGTGCCATGTGGCACCACGTCAGCAAAATTGCCGGAGTCACCTAGTGCAG,49100 fluorescence intensity (a.u.)
21,AATTGCGCTCTCTGGATCTTCTTCTCCGTCTCCTCCCCGGCGGAGTCACCTAGTGCAG,3160 fluorescence intensity (a.u.)

row,Sequence,binding signal
1,CACAAACCAATGGGCATCGCATTGTGCGCGTCATTGTACACGGAGTCACCTAGTGCAG,3500 fluorescence intensity (a.u.)
2,TCTCCCTGAGTCCAAGCCGCTCCTCCCTGACGCCTATGCCCGGAGTCACCTAGTGCAG,3510 fluorescence intensity (a.u.)
3,TCTCTCTCTCTCTCTCTCTCTTCTGACTTAGCTTTGTCAACGGAGTCACCTAGTGCAG,3700 fluorescence intensity (a.u.)
4,CTCGTCCCTCGTCAGCGTCCTCCCCGCCTTCGTCTCGCCGCGGAGTCACCTAGTGCAG,8650 fluorescence intensity (a.u.)
5,TTTGTAGTTAAATTTATACGCTAGAAATGCCTTATATTTGCGGAGTCACCTAGTGCAG,3290 fluorescence intensity (a.u.)
6,CACAGAGTGAGGGATTAAGGAAGAAGAAGAGGTTGATTGACGGAGTCACCTAGTGCAG,31900 fluorescence intensity (a.u.)
7,GGAGCCGAACGAGCCTCGTCACGCGGTTCTCCAGCGCAGCCGGAGTCACCTAGTGCAG,6090 fluorescence intensity (a.u.)
8,CGGTCTCTTTCCACCACGGTGCCCGTGTCCGTCCGAGCGCCGGAGTCACCTAGTGCAG,3160 fluorescence intensity (a.u.)
9,AATTGATTATCCGAGAAGCAATGAGCAGAACGTTCATGTACGGAGTCACCTAGTGCAG,11000 fluorescence intensity (a.u.)
10,ACGTGTCGAGCACAGGAACACGTGTCACTTCAGTTCTTCCCGGAGTCACCTAGTGCAG,19500 fluorescence intensity (a.u.)
11,TTACAAGGTTATAACATAGTTAATTATTTAGGTATACAATCGGAGTCACCTAGTGCAG,26900 fluorescence intensity (a.u.)
12,GCGAGCGGTATTGCTGATGTGGCATCCGACGTAGAAGGTTCGGAGTCACCTAGTGCAG,15500 fluorescence intensity (a.u.)
13,GCTACAACTAGCACTCCTAACCTGACACGATAGTTTTGGGCGGAGTCACCTAGTGCAG,3280 fluorescence intensity (a.u.)
14,CATATCCTATCATTAGGACATGACTCGGTCTTGTGTCGCTCGGAGTCACCTAGTGCAG,3860 fluorescence intensity (a.u.)
15,CTCACAGTGGATAGTAACAATTGATCCCGGTATCTATTTGCGGAGTCACCTAGTGCAG,5110 fluorescence intensity (a.u.)
16,GGGTCTGTTTGGTTCACAGCCCAAACCAGCCATCAAGTTGCGGAGTCACCTAGTGCAG,3820 fluorescence intensity (a.u.)
17,CTTAATCACAATGTCAATCAATGTCCTGTGGCAAAGTGCCCGGAGTCACCTAGTGCAG,3270 fluorescence intensity (a.u.)
18,ACTCTTCTGTTTTCCTGCGCTGTGTAATGTCAAAATTCTCCGGAGTCACCTAGTGCAG,4080 fluorescence intensity (a.u.)
19,GGTGGTGCTGGACCTCGAGTTCGGAGATCTCATGCGGCCCCGGAGTCACCTAGTGCAG,27500 fluorescence intensity (a.u.)
20,TGCATCACTCTATTGGTTGCAATGTGTCCTTTATACCAATCGGAGTCACCTAGTGCAG,29300 fluorescence intensity (a.u.)
21,TGCCTGCGTAAAATAATACACGGCGTGGCGGCGCGCCGCGCGGAGTCACCTAGTGCAG,3280 fluorescence intensity (a.u.)

# Individual results from the entries so far:
# ACGTGTCGAGCACAGGAACACGTGTCACTTCAGTTCTTCCCGGAGTCACCTAGTGCAG | binding signal: 19500 fluorescence intensity (a.u.)
# AAAACGACTATCGTTGACGAGACATCCACGTGGTAGTCCACGGAGTCACCTAGTGCAG | binding signal: 4520 fluorescence intensity (a.u.)

# Source: publication PMC7819943, “Rice protein-binding microarrays: a tool to detect cis-acting elements near promoter regions in rice”
